Experimental data from publication doi:10.1101/2023.01.18.524494.
These are yes or no findings as the source states them, for the method shown. Binding can be weak; no strength is given. Where a sequence is shown, tags or fusion partners need not be part of it.

Tests used:
Assay in all cases: cryo-EM structure
[1] = molecular target: Kluyveromyces lactis ribosomal protein eS10 (Kluyveromyces lactis (endogenous))
[2] = molecular target: Kluyveromyces lactis ribosomal protein uS10 (Kluyveromyces lactis (endogenous))
[3] = molecular target: Kluyveromyces lactis ribosomal protein uS3 (Kluyveromyces lactis (endogenous))

Measured: binding

B1: Saccharomyces cerevisiae eukaryotic initiation factor 4B (protein, UniProt P34167 1-436)
chain: MAPPKKTVKKMDLTSFLNDDTFGSSWAEEDVDLNKITIPIETANANTIPLSELAHAKNNSNNTRSGGFGGSFGGRSRLDPALGGGSSDRREEYPVPDAPPYRAVINNIPWDITPEGVQAWVEDGLVKPEAVEEVVLPKNLRDPTRLKGNAFVTLKERADLVAVLKFNGTKLNERTVYVSVAAPRRGGGADVDWSSARGSNFQGDGREDAPDLDWGAARGSNFRGPRREREEVDIDWTAARGSNFQGSSRPPRREREEVDIDWSAARGSNFQGSSRPPRREREEPDIDWSAARGSNFQSSSRPPRREREEPDIDWSAARGSNFQSSSRPPRREREKEEPALDWGAARGAQFGKPQQTKNTYKDRSLTNKKTTDEQPKIQKSVYDVLRTEDDDEDEEAEKQNGDAKENKVDAAVEKLQDKTAQLTVEDGDNWEVVGKK
binds: all assays above
